± gives the standard deviation of the averaged measurements. Small differences around the control level are noise.
Assays:
Assay in all cases: level (log10 ratio to DMSO vehicle control); higher = higher biomarker level / cell amount than vehicle control
[1] = compound: OCCC(F)(F)C(F)(F)C(F)(F)C(F)(F)C(F)(F)C(F)(F)C(F)(F)C(F)(F)F [8:2 Fluorotelomer alcohol]; settings: 2200 nM; in DMSO
Protocol: (§1)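 BioMAP Diversity Plus panel of 12 human primary cell co-culture systems (3C, 4H, LPS, SAg, BT, BF4T, BE3C, CASM3C, HDF3CGF, KF3CT, MyoF, Mphg). Compounds were added 1 h before stimulation and left for 24 h (MyoF 48 h; BT 72 h for soluble read-outs or 6 d for IgG). Biomarkers were read by ELISA, cytotoxicity by SRB, PBMC viability and proliferation by Alamar Blue. Each well value was divided by the mean of 8 DMSO control wells on the same plate and log10 transformed; duplicate blinded samples were tested at 4 concentrations.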

[2] = compound: FC(F)(F)C(F)(F)C(F)(F)C(F)(F)C(F)(F)C(F)(F)C(F)(F)CCI [1-Iodo-1H,1H,2H,2H-perfluorononane]; settings: in DMSO
Protocol: as §1

[3] = compound: O=S(=O)(Cl)C(F)(F)C(F)(F)C(F)(F)C(F)(F)C(F)(F)C(F)(F)C(F)(F)C(F)(F)F [Perfluoro-1-octanesulfonyl chloride]; settings: 2200 nM; in DMSO
Protocol: as §1

[4] = compound: C=CC(=O)OCC(F)(F)C(F)(F)C(F)(F)C(F)(F)COC(=O)C=C [1H,1H,6H,6H-Perfluorohexane-1,6-diol diacrylate]; settings: 2200 nM; in DMSO
Protocol: as §1

[5] = compound: O=C(O)C(F)(F)OC(F)(F)C(F)(F)OC(F)(F)C(F)(F)C(F)(F)C(F)(F)F [Perfluoro-3,6-dioxadecanoic acid]; settings: 2200 nM; in DMSO
Protocol: as §1

[6] = compound: O=C(O)C=CC(F)(C(F)(F)F)C(F)(F)F [3-(Perfluoroisopropyl)-2-propenoic acid]; settings: in DMSO
Protocol: as §1

[7] = compound: O=P(O)(O)CCC(F)(F)C(F)(F)C(F)(F)C(F)(F)C(F)(F)C(F)(F)C(F)(F)C(F)(F)F [((Perfluorooctyl)ethyl)phosphonic acid]; settings: 2200 nM; in DMSO
Protocol: as §1

[8] = compound: O=C(O)C(F)(F)OC(F)(F)C(F)(F)OC(F)(F)C(=O)O [Perfluoro-3,6-dioxaoctane-1,8-dioic acid]; settings: 2200 nM; in DMSO
Protocol: as §1

Perfluoropropanoic acid = compound: O=C(O)C(F)(F)C(F)(F)F [Perfluoropropanoic acid]; settings: 2200 nM; in DMSO
Protocol: as §1

[9] = compound: O=C(O)C(F)(F)C(F)(F)OC(F)(F)F [Perfluoro-3-methoxypropanoic acid]; settings: 2200 nM; in DMSO
Protocol: as §1

Perfluoroundecanoic acid = compound: O=C(O)C(F)(F)C(F)(F)C(F)(F)C(F)(F)C(F)(F)C(F)(F)C(F)(F)C(F)(F)C(F)(F)C(F)(F)F [Perfluoroundecanoic acid]; settings: in DMSO
Protocol: as §1

Perfluorobutanoic acid = compound: O=C(O)C(F)(F)C(F)(F)C(F)(F)F [Perfluorobutanoic acid]; settings: 2200 nM; in DMSO
Protocol: as §1

[10] = compound: C=C(C)C(=O)OCC(F)(F)C(F)(F)C(F)(F)F [2,2,3,3,4,4,4-Heptafluorobutyl methacrylate]; settings: 2200 nM; in DMSO
Protocol: as §1

[11] = compound: O=C(O)C(F)(F)C(F)(F)C(F)(F)C(F)(F)C(F)(F)C(F)(F)C(F)(F)C(F)F [9-H-Perfluorononanoic acid]; settings: 2200 nM; in DMSO
Protocol: as §1

[12] = compound: OCC(F)(F)C(F)(F)C(F)(F)C(F)(F)C(F)(F)C(F)(F)C(F)(F)C(F)(F)C(F)(F)C(F)(F)C(F)(F)F [11:1 Fluorotelomer alcohol]; settings: in DMSO
Protocol: as §1

Perfluorooctanamide = compound: NC(=O)C(F)(F)C(F)(F)C(F)(F)C(F)(F)C(F)(F)C(F)(F)C(F)(F)F [Perfluorooctanamide]; settings: 2200 nM; in DMSO
Protocol: as §1

[13] = compound: FC(F)C(F)(F)COCC1CO1 [((2,2,3,3-Tetrafluoropropoxy)methyl)oxirane]; settings: 2200 nM; in DMSO
Protocol: as §1

[14] = compound: FC(F)(F)C(F)(F)C(F)(F)C(F)(F)C(F)(F)C(F)(F)C(F)(F)I [1-Iodopentadecafluoroheptane]; settings: in DMSO
Protocol: as §1

Row | Test System | level (log10) [1] | level (log10) ([2]; 740 nM) | level (log10) ([2]; 2200 nM) | level (log10) ([2]; 6700 nM) | level (log10) ([2]; 20000 nM) | level (log10) [3] | level (log10) [4] | level (log10) [5] | level (log10) ([6]; 2200 nM) | level (log10) ([6]; 6700 nM) | level (log10) ([6]; 20000 nM) | level (log10) ([6]; 60000 nM) | level (log10) [7] | level (log10) [8] | level (log10) (Perfluoropropanoic acid) | level (log10) [9] | level (log10) (Perfluoroundecanoic acid; 740 nM) | level (log10) (Perfluoroundecanoic acid; 2200 nM) | level (log10) (Perfluorobutanoic acid) | level (log10) [10] | level (log10) [11] | level (log10) ([12]; 370 nM) | level (log10) ([12]; 1100 nM) | level (log10) ([12]; 3300 nM) | level (log10) ([12]; 10000 nM) | level (log10) (Perfluorooctanamide) | level (log10) [13] | level (log10) ([14]; 740 nM) | level (log10) ([14]; 2200 nM) | level (log10) ([14]; 6700 nM) | level (log10) ([14]; 20000 nM)
1 | BF4T:Keratin 8/18 | 0.0055 ± 0.019 | -0.003 ± 0.071 | -0.0125 ± 0.043 | -0.016 ± 0.052 | -0.0135 ± 0.0092 | 0.0055 ± 0.023 | -0.014 ± 0.0085 | 0.01 ± 0.031 | 0.0035 ± 0.019 | -0.018 ± 0.028 | -0.0135 ± 0.0021 | -0.0035 ± 0.044 | 0.0015 ± 0.012 | -0.0055 ± 0.00071 | -0.009 ± 0.021 | 0.014 ± 0.024 | 0.0065 ± 0.022 | 0.008 ± 0.0028 | 0.0115 ± 0.00071 | -0.021 ± 0.023 | 0.0125 ± 0.04 | -0.001 ± 0.033 | 0.0025 ± 0.026 | -0.009 ± 0.03 | -0.0075 ± 0.025 | -0.0355 ± 0.043 | 0.0095 ± 0.023 | -0.0145 ± 0.05 | -0.011 ± 0.021 | -0.031 ± 0.021 | -0.054 ± 0.0028
2 | BF4T:MMP-1 | 0.0105 ± 0.022 | -0.0055 ± 0.05 | -0.013 ± 0.03 | 0.001 ± 0.035 | 0.016 ± 0.033 | 0.0115 ± 0.023 | 0.0275 ± 0.049 | -0.019 ± 0.014 | 0.005 ± 0.014 | -0.0055 ± 0.012 | -0.0055 ± 0.0035 | 0.017 ± 0.03 | 0.0075 ± 0.019 | 0.009 ± 0.017 | 0.008 ± 0.018 | 0.0135 ± 0.026 | -0.0185 ± 0.011 | -0.0155 ± 0.042 | -0.0035 ± 0.03 | -0.003 ± 0.02 | 0.0225 ± 0.049 | -0.0055 ± 0.013 | -0.0095 ± 0.005 | -0.01 | -0.0015 ± 0.016 | 0.0005 ± 0.00071 | 0.014 ± 0.0099 | -0.014 ± 0.014 | -0.0245 ± 0.036 | -0.0055 ± 0.018 | 0.0005 ± 0.0035
3 | BF4T:MMP-3 | 0.0035 ± 0.029 | 0 ± 0.0014 | 0.0045 ± 0.013 | 0.0185 ± 0.013 | 0.011 ± 0.0014 | -0.0035 ± 0.018 | 0.0125 ± 0.042 | 0.0195 ± 0.018 | 0.026 ± 0.076 | -0.003 ± 0.014 | -0.0035 ± 0.015 | 0.0205 ± 0.033 | 0.0165 ± 0.0021 | 0.01 ± 0.024 | 0.0045 ± 0.0035 | 0.0325 ± 0.043 | -0.0455 ± 0.0092 | -0.0335 ± 0.057 | 0.023 ± 0.03 | -0.001 ± 0.038 | 0.0025 ± 0.021 | 0.003 ± 0.031 | 0.008 ± 0.0014 | 0.009 ± 0.0057 | 0.0435 ± 0.035 | 0.0115 ± 0.0092 | 0.0235 ± 0.026 | -0.007 ± 0.052 | -0.034 ± 0.028 | -0.0345 ± 0.039 | -0.0315 ± 0.016
4 | BF4T:MMP-9 | -0.0105 ± 0.018 | -0.012 ± 0.017 | -0.0045 ± 0.052 | 0.007 ± 0.044 | -0.0065 ± 0.028 | -0.0005 ± 0.022 | 0.014 ± 0.024 | -0.017 ± 0.016 | 0.001 ± 0.057 | 0.0015 ± 0.029 | 0.004 ± 0.0099 | 0.025 ± 0.04 | 0.017 ± 0.037 | 0.0005 ± 0.023 | -0.019 ± 0.03 | -0.0075 ± 0.035 | -0.012 ± 0.03 | -0.0445 ± 0.022 | 0.027 ± 0.048 | 0.0015 ± 0.035 | -0.016 ± 0.037 | -0.028 ± 0.044 | -0.025 ± 0.03 | -0.02 ± 0.0071 | -0.03 ± 0.0057 | 0.003 ± 0.027 | 0.006 ± 0.025 | 0.009 ± 0.048 | -0.0335 ± 0.0064 | -0.0345 ± 0.063 | -0.019 ± 0.013
5 | BF4T:PAI-I | 0.0055 ± 0.013 | 0.02 ± 0.025 | 0.015 ± 0.013 | -0.0005 ± 0.013 | -0.013 ± 0.011 | 0.0095 ± 0.016 | -0.009 ± 0.016 | -0.023 ± 0.016 | 0.0035 ± 0.022 | 0 ± 0.0099 | 0.001 ± 0.0014 | 0.0155 ± 0.026 | 0.012 ± 0.011 | 0.008 ± 0.018 | 0.0065 ± 0.022 | 0.0115 ± 0.019 | -0.0035 ± 0.0021 | 0.006 ± 0.018 | 0.019 ± 0.0028 | 0.0015 ± 0.0064 | -0.0305 ± 0.018 | -0.001 ± 0.014 | -0.003 ± 0.011 | -0.003 ± 0.0042 | 0.002 ± 0.027 | 0.0045 ± 0.0064 | 0.006 ± 0.018 | -0.005 ± 0.024 | -0.008 ± 0.0057 | -0.004 ± 0.0085 | -0.0235 ± 0.0092
6 | BF4T:SRB | 0.005 ± 0.0099 | -0.003 | -0.005 ± 0.0014 | -0.001 ± 0.0042 | 0.001 ± 0.0042 | 0.0025 ± 0.005 | 0.0055 ± 0.015 | -0.0045 ± 0.013 | 0.0025 ± 0.0078 | -0.008 ± 0.011 | -0.008 ± 0.0099 | 0.006 ± 0.018 | 0.0005 ± 0.0035 | -0.0055 ± 0.011 | -0.0055 ± 0.00071 | -0.0015 ± 0.021 | 0.002 ± 0.013 | -0.017 ± 0.0014 | 0 ± 0.0057 | -0.0005 ± 0.025 | -0.0035 ± 0.005 | -0.0015 ± 0.0092 | -0.003 ± 0.0014 | -0.0075 ± 0.0064 | 0.001 ± 0.014 | 0.0035 ± 0.0092 | 0.0075 ± 0.016 | -0.004 ± 0.0042 | -0.011 ± 0.0099 | -0.0085 ± 0.0092 | -0.008 ± 0.0014
7 | BF4T:tPA | -0.0495 ± 0.021 | 0.0085 ± 0.0092 | -0.003 ± 0.017 | 0.0185 ± 0.0064 | -0.0135 ± 0.0064 | -0.0285 ± 0.012 | 0.013 ± 0.071 | -0.0225 ± 0.036 | 0.0215 ± 0.071 | -0.004 ± 0.037 | -0.0055 ± 0.022 | 0.03 ± 0.024 | 0.0135 ± 0.057 | 0.032 ± 0.042 | -0.002 ± 0.018 | 0.035 ± 0.041 | -0.0105 ± 0.00071 | -0.0205 ± 0.011 | 0.022 ± 0.031 | 0.017 ± 0.059 | -0.045 ± 0.028 | -0.0005 ± 0.037 | 0.0015 ± 0.0092 | -0.003 ± 0.0071 | 0.026 ± 0.024 | 0.005 ± 0.017 | 0.031 ± 0.038 | -0.014 ± 0.0014 | -0.007 ± 0.018 | 0.022 ± 0.025 | -0.0085 ± 0.016
